Measurements reported in PubChem BioAssay AID504791 (Drosophila RNAi Screening Center, 2011).
The screen tested about 23,000 reagents; shown is a random part of those that have a named target and a result. In the full data, 199 (0.86%) are marked active. 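Plate-scaled ratios behind the calls are not deposited; printed light signals are raw; many rows marked increased or decreased are still called inactive.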 Unmarked entries are inactive. A plus sign joins genes that one reagent is predicted to hit. Further read-outs or replicates are left out here. No sequences are given here.

Test: 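Genes whose knock-down strengthens or weakens small-RNA reporter silencing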 (primary screen)
System: Drosophila S2-derived reporter cells
Reagent: long dsRNA against Drosophila genes, about 150-250 ng dsRNA per well (siRNA assay); about 80-120 ng (miRNA assay)
Duration: about 5 days (siRNA assay); about 4 days (miRNA assay)
Challenge: copper sulfate induction of reporters: 25 µM (siRNA assay); 200 mM stated (miRNA assay), 1-2 days before reading
Measurement: 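Per-well ratio of Renilla over firefly light, expressed relative to that plate's average ratio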
Scale: siRNA reporter hit score: higher = 3 marks a strong hit with raised ratio; -3 a strong hit with lowered ratio
Rule for the call: 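First-pass picks had plate-scaled ratios over 1.5 for the siRNA assay, over 1.6 for the miRNA assay, or under 0.6; two distinct dsRNAs had to score alike on retest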

predicted target | DRSC id | siRNA reporter hit score | stable siRNA reporter change | miRNA reporter change | stable assay Renilla, run 1 (luminescence)
CG31019 | DRSC13994 | – | – | – | 8968
CG10445 | DRSC14247 | – | – | – | 7174
hebe | DRSC05192 | – | – | – | 4648
hebe | DRSC06605 | – | – | – | 5643
hebe | DRSC21614 | – | – | – | 8871
prom | DRSC04684 | – | – | – | 6803
prom | DRSC21463 | – | – | – | 8959
prom | DRSC22088 | – | – | – | 8116
Ak3 | DRSC16075 | – | – | – | 7514
Bro | DRSC08149 | – | – | – | 6915
CG5568 | DRSC10518 | – | reporter ratio raised past the hit cutoff | – | 1364
CG5568 | DRSC22816 | – | – | – | 4671
Acbp1 | DRSC03093 | – | – | – | 7746
Kif3C | DRSC17209 | – | – | – | 6375
Kif3C | DRSC17210 | – | – | – | 5639

Part of the list above, showing only “stable assay Renilla, run 1 (luminescence)”:
Ak3 [DRSC16075]: 7514
Bro [DRSC08149]: 6915
CG5568 [DRSC10518]: 1364
CG5568 [DRSC22816]: 4671
Acbp1 [DRSC03093]: 7746

Further entries follow:
predicted target | DRSC id | siRNA reporter hit score | stable siRNA reporter change | miRNA reporter change | stable assay Renilla, run 1 (luminescence)
Mct1 | DRSC18681 | – | – | – | 6219
Cpr31A | DRSC02779 | – | – | – | 7040
RpL13 | DRSC03416 | – | – | – | 3923
sqa | DRSC06693 | – | – | – | 6847
sqa | DRSC21635 | – | – | – | 8209
bru1 | DRSC01234 | – | – | reporter ratio lowered past the hit cutoff | 3711
bru1 | DRSC01236 | – | – | – | 4207
bru1 | DRSC01237 | 3 | – | – | 4212
bru1 | DRSC01238 | – | – | – | 4635
bru1 | DRSC03485 | – | – | reporter ratio lowered past the hit cutoff | 1.14e5
CG5162 | DRSC19935 | – | – | – | 5900
Vmat + CG13330 | DRSC06365 | – | – | – | 7775
CG34325 | DRSC19802 | – | – | – | 5535
CG34325 | DRSC20200 | – | – | – | 5635
msd5 | DRSC08560 | – | – | – | 6338
CG30094 | DRSC22268 | – | – | – | 9078
CG1314 | DRSC20495 | – | – | – | 8454
CG15515 | DRSC15054 | – | – | – | 6051
Efhc1.1 | DRSC20135 | – | – | – | 5382
